The values below come from the supplement of paper PMC7666118.

The chains behind the UniProt entries cited, without tags or fusion partners. Where a name states a change or a piece, a line headed by the entry shows the natural chain unless it says otherwise.
UniProt O43237, whole entry: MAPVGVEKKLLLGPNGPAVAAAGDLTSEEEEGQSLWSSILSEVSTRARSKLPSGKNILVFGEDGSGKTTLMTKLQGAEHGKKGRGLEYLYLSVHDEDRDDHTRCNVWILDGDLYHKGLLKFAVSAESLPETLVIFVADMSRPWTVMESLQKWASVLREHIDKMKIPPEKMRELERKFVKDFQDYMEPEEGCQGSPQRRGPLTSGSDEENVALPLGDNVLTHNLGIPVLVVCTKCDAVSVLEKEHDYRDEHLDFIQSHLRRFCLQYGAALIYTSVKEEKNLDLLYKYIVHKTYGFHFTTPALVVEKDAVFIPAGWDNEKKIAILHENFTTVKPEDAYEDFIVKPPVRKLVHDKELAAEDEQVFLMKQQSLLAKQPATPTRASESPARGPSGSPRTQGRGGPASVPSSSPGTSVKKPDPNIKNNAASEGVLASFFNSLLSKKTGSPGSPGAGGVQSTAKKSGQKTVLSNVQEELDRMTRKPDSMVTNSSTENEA
UniProt Q96GK7: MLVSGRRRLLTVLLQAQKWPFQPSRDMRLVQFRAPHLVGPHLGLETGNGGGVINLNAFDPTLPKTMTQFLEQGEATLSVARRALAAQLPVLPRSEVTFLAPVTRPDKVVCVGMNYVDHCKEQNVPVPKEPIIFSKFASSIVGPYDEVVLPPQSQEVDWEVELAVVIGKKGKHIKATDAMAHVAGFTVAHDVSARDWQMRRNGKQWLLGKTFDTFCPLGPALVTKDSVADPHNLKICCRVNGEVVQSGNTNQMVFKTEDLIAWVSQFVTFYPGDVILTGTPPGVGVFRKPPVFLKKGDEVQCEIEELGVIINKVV
UniProt Q96RQ1: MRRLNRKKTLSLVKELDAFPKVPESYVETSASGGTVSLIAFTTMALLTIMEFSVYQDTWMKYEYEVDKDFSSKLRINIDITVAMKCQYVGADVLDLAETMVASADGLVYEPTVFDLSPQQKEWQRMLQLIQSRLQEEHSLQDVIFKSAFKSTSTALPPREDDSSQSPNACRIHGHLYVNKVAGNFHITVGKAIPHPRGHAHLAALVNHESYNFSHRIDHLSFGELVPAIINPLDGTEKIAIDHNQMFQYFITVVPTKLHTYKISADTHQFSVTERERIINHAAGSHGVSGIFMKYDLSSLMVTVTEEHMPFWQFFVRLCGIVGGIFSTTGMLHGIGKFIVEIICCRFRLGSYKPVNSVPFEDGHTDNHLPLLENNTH
UniProt P49770: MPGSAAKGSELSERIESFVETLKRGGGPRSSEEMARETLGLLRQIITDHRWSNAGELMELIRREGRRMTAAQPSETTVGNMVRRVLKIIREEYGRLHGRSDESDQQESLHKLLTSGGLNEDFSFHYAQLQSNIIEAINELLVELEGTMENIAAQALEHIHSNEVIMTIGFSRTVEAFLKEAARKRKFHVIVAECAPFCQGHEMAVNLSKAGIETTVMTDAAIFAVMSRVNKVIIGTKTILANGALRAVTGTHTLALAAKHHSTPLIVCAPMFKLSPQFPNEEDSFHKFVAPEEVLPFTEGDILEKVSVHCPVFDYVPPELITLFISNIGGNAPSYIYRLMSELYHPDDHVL
UniProt Q13216, whole entry: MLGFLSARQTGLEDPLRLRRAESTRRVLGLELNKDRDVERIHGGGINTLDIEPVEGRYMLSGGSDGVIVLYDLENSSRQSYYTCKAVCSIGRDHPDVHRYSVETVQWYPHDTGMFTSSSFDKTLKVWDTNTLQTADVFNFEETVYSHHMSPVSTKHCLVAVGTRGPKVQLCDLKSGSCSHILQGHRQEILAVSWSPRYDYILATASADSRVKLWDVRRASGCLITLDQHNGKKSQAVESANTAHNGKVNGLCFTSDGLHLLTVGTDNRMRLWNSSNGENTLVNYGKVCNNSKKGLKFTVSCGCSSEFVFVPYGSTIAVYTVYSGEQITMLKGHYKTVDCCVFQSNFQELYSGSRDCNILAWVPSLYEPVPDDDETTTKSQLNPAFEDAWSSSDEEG
UniProt Q15717, whole entry: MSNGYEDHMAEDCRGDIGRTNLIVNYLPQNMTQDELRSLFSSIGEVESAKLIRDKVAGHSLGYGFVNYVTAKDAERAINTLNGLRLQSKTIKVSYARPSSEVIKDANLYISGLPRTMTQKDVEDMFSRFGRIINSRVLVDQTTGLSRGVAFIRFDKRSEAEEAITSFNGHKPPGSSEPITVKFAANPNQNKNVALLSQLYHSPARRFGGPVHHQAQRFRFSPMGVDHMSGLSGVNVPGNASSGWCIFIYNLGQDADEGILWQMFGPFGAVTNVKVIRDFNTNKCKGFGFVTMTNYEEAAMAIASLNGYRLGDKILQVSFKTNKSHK
UniProt O95571: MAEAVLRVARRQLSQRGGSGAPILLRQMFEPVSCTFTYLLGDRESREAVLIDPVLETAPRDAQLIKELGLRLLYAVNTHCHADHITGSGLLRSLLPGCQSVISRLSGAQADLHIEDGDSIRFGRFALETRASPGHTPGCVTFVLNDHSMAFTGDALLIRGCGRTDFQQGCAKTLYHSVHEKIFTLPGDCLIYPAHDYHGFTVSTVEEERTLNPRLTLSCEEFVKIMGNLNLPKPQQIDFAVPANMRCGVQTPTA
UniProt Q5T8I3: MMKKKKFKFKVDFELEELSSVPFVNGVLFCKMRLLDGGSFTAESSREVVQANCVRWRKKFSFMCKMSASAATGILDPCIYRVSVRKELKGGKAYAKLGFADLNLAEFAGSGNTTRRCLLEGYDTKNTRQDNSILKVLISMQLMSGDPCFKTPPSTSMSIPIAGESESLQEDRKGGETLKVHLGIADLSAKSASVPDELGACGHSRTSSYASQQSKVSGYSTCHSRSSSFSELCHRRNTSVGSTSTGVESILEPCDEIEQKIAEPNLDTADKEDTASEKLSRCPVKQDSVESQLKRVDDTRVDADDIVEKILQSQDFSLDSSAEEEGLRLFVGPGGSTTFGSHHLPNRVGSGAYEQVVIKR
UniProt Q92556, whole entry: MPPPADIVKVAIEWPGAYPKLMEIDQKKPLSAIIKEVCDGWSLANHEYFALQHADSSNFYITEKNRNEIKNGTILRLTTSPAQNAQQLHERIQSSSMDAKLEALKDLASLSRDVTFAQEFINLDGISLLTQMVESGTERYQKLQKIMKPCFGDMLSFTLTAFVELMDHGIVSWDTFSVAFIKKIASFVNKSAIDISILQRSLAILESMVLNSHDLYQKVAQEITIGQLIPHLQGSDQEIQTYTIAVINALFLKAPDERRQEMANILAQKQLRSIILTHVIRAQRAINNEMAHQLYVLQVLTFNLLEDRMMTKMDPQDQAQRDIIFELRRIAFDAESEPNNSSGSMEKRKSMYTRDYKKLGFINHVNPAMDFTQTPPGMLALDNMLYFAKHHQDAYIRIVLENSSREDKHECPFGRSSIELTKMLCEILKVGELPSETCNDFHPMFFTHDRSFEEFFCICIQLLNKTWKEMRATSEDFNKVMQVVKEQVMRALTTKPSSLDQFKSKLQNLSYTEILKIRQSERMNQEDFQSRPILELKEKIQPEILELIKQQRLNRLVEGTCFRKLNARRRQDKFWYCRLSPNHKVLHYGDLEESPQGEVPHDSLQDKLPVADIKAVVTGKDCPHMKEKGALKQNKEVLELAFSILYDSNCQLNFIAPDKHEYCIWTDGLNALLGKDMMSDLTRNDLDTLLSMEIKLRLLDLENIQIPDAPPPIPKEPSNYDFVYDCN
UniProt P52799, whole entry: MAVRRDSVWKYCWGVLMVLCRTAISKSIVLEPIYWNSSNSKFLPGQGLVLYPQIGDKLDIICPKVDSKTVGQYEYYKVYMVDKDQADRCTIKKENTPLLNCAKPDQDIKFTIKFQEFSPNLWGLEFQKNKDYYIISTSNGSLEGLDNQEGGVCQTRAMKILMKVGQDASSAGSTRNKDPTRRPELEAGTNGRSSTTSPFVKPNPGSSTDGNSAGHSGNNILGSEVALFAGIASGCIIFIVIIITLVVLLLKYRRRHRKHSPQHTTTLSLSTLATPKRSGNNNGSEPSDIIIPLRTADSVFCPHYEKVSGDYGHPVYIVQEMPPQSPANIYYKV
UniProt P11171, whole entry: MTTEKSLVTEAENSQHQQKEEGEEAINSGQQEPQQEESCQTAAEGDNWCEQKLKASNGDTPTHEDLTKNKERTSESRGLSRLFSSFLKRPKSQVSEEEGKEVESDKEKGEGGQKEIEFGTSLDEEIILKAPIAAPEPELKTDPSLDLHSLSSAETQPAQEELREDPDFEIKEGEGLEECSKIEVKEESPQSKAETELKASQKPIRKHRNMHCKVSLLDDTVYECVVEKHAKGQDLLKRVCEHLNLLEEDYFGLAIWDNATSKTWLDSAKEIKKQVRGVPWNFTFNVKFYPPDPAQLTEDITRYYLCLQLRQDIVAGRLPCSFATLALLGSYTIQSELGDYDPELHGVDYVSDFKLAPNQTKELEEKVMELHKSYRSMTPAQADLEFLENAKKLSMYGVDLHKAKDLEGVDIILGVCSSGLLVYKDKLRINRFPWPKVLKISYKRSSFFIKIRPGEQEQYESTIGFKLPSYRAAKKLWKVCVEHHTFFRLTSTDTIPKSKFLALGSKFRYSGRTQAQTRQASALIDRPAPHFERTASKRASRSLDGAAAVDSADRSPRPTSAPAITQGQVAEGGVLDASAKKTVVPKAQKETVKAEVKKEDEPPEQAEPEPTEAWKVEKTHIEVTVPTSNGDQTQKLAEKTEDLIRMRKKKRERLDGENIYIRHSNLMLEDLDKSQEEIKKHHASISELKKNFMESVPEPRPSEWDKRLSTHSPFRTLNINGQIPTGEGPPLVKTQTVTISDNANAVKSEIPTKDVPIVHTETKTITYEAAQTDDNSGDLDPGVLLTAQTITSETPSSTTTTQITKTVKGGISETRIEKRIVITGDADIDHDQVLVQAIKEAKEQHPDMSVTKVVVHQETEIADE
UniProt Q8N9N8: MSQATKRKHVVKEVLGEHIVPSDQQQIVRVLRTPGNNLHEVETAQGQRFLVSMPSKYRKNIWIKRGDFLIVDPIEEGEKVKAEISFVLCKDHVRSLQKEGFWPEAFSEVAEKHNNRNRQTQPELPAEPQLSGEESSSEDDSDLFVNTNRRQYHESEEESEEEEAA
UniProt Q15024, whole entry: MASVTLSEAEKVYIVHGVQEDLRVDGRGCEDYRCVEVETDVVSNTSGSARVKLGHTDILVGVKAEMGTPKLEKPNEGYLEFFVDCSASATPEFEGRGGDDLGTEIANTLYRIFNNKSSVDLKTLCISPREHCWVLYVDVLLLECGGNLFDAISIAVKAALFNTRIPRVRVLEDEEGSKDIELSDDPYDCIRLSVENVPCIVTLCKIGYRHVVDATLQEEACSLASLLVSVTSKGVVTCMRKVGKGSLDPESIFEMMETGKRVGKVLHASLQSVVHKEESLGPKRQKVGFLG
UniProt Q9Y3B2, whole entry: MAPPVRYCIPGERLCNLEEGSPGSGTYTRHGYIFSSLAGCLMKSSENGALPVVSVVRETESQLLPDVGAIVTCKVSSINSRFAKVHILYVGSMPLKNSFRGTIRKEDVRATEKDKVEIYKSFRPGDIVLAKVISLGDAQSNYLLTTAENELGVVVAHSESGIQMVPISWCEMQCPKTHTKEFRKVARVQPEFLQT
UniProt Q5VWP2: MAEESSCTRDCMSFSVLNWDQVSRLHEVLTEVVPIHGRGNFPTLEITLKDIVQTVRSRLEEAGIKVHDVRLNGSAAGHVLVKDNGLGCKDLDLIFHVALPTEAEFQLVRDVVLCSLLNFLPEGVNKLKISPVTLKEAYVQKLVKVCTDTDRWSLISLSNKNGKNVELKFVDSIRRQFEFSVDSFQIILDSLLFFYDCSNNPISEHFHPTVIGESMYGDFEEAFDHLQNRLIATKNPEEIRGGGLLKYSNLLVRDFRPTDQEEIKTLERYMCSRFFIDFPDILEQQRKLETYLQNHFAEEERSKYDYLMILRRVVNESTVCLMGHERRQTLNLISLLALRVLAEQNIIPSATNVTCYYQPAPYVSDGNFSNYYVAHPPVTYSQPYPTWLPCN
UniProt P11678: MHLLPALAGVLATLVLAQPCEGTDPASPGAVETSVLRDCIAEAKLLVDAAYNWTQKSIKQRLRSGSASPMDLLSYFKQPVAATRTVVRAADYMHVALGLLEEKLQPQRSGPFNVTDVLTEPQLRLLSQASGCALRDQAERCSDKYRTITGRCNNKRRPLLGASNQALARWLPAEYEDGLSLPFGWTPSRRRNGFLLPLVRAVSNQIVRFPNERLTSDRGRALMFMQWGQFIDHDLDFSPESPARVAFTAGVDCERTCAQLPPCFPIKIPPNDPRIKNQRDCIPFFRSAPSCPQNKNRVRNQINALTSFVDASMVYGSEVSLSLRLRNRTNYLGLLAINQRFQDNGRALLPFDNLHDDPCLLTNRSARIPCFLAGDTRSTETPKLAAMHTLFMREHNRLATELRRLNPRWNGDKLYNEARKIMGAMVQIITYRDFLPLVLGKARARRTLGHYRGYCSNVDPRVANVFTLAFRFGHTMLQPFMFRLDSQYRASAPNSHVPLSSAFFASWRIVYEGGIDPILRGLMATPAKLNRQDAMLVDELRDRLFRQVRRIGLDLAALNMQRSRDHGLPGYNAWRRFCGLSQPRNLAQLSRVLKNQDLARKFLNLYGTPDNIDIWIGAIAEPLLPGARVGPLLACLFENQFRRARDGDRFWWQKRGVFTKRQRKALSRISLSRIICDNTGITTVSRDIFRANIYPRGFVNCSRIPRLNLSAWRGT

This is one part of the list.

Compound in the experiment: COc1ccc(Cn2ccc3cc(C)c(C(=O)NO)cc32)cc1
Briefly: dose-dependent thermal stabilisation call (2D-TPP, DLPTP, 10% FDR) (binary (1 = stabilised)); higher = stabilised by the compound. The conditions noted are these: system: HL-60 intact cells; concentration range 0.04-10 µM. The procedure: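 2D thermal proteome profiling in intact HL-60 cells treated with BRD-3811 (0, 0.04, 0.29, 2, 10 uM) for 90 min at 37 C, then heated 3 min at one of 12 temperatures (42-63.9 C). Soluble protein was quantified by TMT10 MS. The value is the DLPTP call of the paper: dose-dependent thermal stabilisation over all temperatures at 10% FDR (F-test of a dose-response against a flat model); one experiment, one call per tested protein.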
For the target DYNC1LI2 (UniProt O43237), the “dose-dependent thermal stabilisation call” value is inactive: 0.

As to FAHD2A (UniProt Q96GK7), the “dose-dependent thermal stabilisation call” value was inactive: 0.

As for EPHX1 (UniProt P07099), the “dose-dependent thermal stabilisation call” value is active: 1.

For EAF1 (UniProt Q96JC9), the “dose-dependent thermal stabilisation call” value was inactive: 0.

ERAP2 (UniProt Q6P179): the “dose-dependent thermal stabilisation call” value was inactive: 0.

For ERGIC2 (UniProt Q96RQ1), the “dose-dependent thermal stabilisation call” value is inactive: 0.

With EXT2 (UniProt Q93063), the “dose-dependent thermal stabilisation call” value was inactive: 0.

Turning to EIF2B2 (UniProt P49770), the “dose-dependent thermal stabilisation call” value is inactive: 0.

In the case of ERCC8 (UniProt Q13216), the “dose-dependent thermal stabilisation call” value is inactive: 0.

In the case of FAM122B (UniProt Q7Z309), the “dose-dependent thermal stabilisation call” value is inactive: 0.

With EHD4 (UniProt Q9H223), the “dose-dependent thermal stabilisation call” value is inactive: 0.

As to EDC3 (UniProt Q96F86), the “dose-dependent thermal stabilisation call” value was inactive: 0.

DYNC1LI1 (UniProt Q9Y6G9): the “dose-dependent thermal stabilisation call” value was inactive: 0.

Turning to EHD1 (UniProt Q9H4M9), the “dose-dependent thermal stabilisation call” value was inactive: 0.

For the target ERLIN1 (UniProt O75477), the “dose-dependent thermal stabilisation call” value was inactive: 0.

On to EED (UniProt O75530), for which the “dose-dependent thermal stabilisation call” value is inactive: 0.

In the case of ELAVL1 (UniProt Q15717), the “dose-dependent thermal stabilisation call” value was inactive: 0.

Turning to FAM20B (UniProt O75063), the “dose-dependent thermal stabilisation call” value was inactive: 0.

For ETHE1 (UniProt O95571), the “dose-dependent thermal stabilisation call” value is inactive: 0.

On to EGR1 (UniProt P18146), for which the “dose-dependent thermal stabilisation call” value was inactive: 0.

With FAM102B (UniProt Q5T8I3), the “dose-dependent thermal stabilisation call” value is inactive: 0.

On to ELMO1 (UniProt Q92556), for which the “dose-dependent thermal stabilisation call” value was inactive: 0.

As to EFNB2 (UniProt P52799), the “dose-dependent thermal stabilisation call” value was inactive: 0.

As for EPB41 (UniProt P11171), the “dose-dependent thermal stabilisation call” value was inactive: 0.

For the target EIF1AD (UniProt Q8N9N8), the “dose-dependent thermal stabilisation call” value is inactive: 0.

Consider DTL (UniProt Q9NZJ0), for which the “dose-dependent thermal stabilisation call” value was inactive: 0.

On to FAM134A (UniProt Q8NC44), for which the “dose-dependent thermal stabilisation call” value is inactive: 0.

FAM120C (UniProt Q9NX05): the “dose-dependent thermal stabilisation call” value was inactive: 0.

As for EXOSC7 (UniProt Q15024), the “dose-dependent thermal stabilisation call” value was inactive: 0.

Consider EXOSC1 (UniProt Q9Y3B2), for which the “dose-dependent thermal stabilisation call” value is inactive: 0.

As to FAM46C (UniProt Q5VWP2), the “dose-dependent thermal stabilisation call” value was inactive: 0.

As to EPX (UniProt P11678), the “dose-dependent thermal stabilisation call” value was inactive: 0.

Regarding EIF3K (UniProt Q9UBQ5), the “dose-dependent thermal stabilisation call” value is inactive: 0.

Take DUSP12 (UniProt Q9UNI6): the “dose-dependent thermal stabilisation call” value is inactive: 0.

As for ERI3 (UniProt O43414), the “dose-dependent thermal stabilisation call” value is inactive: 0.

On to EPN1 (UniProt Q9Y6I3), for which the “dose-dependent thermal stabilisation call” value is inactive: 0.
